# In the supplement of paper PMC8728848:
# The other results are listed elsewhere or left out.
# B1: Epf (Streptococcus pyogenes) (protein)
# chain: GDHGPEFNGVMVVKAAEAEELPDDLMNFKGTWEVSADGSSGRFFSKGATDSYVFHLIPAKDVKKPGWREHNEVKDSYIKIDKQSIAARYKTSTTAPYSVAFKVNTKSLIKDHDYKITFEQGQIASGITVDYRIGSAFNKTTDDSFKISDESKYASNVKIEGEEQGFKQREQGDKTISFRTLKEGPMSLVLLSKVEKKPQGDLDVEFKNLKIIDVTNPSQLDKGVAYVGNKNVQLTLKSDDGRTNFEGDEISLFNSRGELLQTVTVTKDQQNPISITLSEDQAKSLKNKEKLKVSIKQKQSKKTSKDFFFEVGIDPKVEAKQKEKLLELDKVKKQIEDSINGDAWLPEKPVDLQGDHGLSAWSHPQFEK
# Legend:
# Assay in all cases: glycan array binding signal (z-score within array); higher = stronger binding
# Conditions in all cases: glycan notation: IUPAC condensed, linker removed
# [1] = biological target: Fuc(a1-2)[Gal(a1-3)]Gal(b1-4)GlcNAc(b1-2)Man(a1-3)[Fuc(a1-2)[Gal(a1-3)]Gal(b1-4)GlcNAc(b1-2)Man(a1-6)]Man(b1-4)GlcNAc(b1-4)[Fuc(a1-6)]GlcNAc
# Method in brief: (§1)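 Arrays were curated from the Consortium for Functional Glycomics database, 3228 in total, and kept only where the protein sequence was available. Binding is expressed as a within-array Z-score. This score was averaged across arrays of the same protein sequence at different concentrations or buffers and across linkers, and negative values can be read as non-binding.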
# [2] = biological target: Fuc(a1-2)[Gal(a1-3)]Gal(b1-4)GlcNAc(b1-3)GalNAc
# Method in brief: as §1
# [3] = biological target: Fuc(a1-2)[Gal(a1-3)]Gal(b1-4)GlcNAc(b1-6)GalNAc
# Method in brief: as §1
# [4] = biological target: Fuc(a1-2)[Gal(a1-3)]Gal(b1-4)[Fuc(a1-3)]Glc
# Method in brief: as §1
# [5] = biological target: Fuc(a1-2)[Gal(a1-3)]Gal(b1-4)[Fuc(a1-3)]GlcNAc
# Method in brief: as §1
# [6] = biological target: Fuc(a1-2)[Gal(a1-3)]Gal(b1-4)[Fuc(a1-3)]GlcNAc(b1-3)GalNAc
# Method in brief: as §1
# [7] = biological target: Fuc(a1-2)[Gal(a1-4)]Gal(b1-4)GlcNAc
# Method in brief: as §1
# [8] = biological target: Fuc(a1-2)[GalNAc(a1-3)]Gal
# Method in brief: as §1
# [9] = biological target: Fuc(a1-2)[GalNAc(a1-3)]Gal(b1-3)GalNAc(a1-3)[Fuc(a1-2)]Gal(b1-4)GlcNAc
# Method in brief: as §1
# [10] = biological target: Fuc(a1-2)[GalNAc(a1-3)]Gal(b1-3)GalNAc(b1-3)Gal(a1-4)Gal(b1-4)Glc
# Method in brief: as §1
# [11] = biological target: Fuc(a1-2)[GalNAc(a1-3)]Gal(b1-3)GlcNAc
# Method in brief: as §1
# [12] = biological target: Fuc(a1-2)[GalNAc(a1-3)]Gal(b1-3)GlcNAc(b1-2)Man(a1-3)[Fuc(a1-2)[GalNAc(a1-3)]Gal(b1-3)GlcNAc(b1-2)Man(a1-6)]Man(b1-4)GlcNAc(b1-4)GlcNAc
# Method in brief: as §1
# [13] = biological target: Fuc(a1-2)[GalNAc(a1-3)]Gal(b1-3)GlcNAc(b1-2)Man(a1-3)[Fuc(a1-2)[GalNAc(a1-3)]Gal(b1-3)GlcNAc(b1-2)Man(a1-6)]Man(b1-4)GlcNAc(b1-4)[Fuc(a1-6)]GlcNAc
# Method in brief: as §1
# [14] = biological target: Fuc(a1-2)[GalNAc(a1-3)]Gal(b1-3)GlcNAc(b1-3)GalNAc
# Method in brief: as §1
# [15] = biological target: Fuc(a1-2)[GalNAc(a1-3)]Gal(b1-3)GlcNAc(b1-6)GalNAc
# Method in brief: as §1
# [16] = biological target: Fuc(a1-2)[GalNAc(a1-3)]Gal(b1-4)Glc
# Method in brief: as §1
# [17] = biological target: Fuc(a1-2)[GalNAc(a1-3)]Gal(b1-4)GlcNAc
# Method in brief: as §1
# [18] = biological target: Fuc(a1-2)[GalNAc(a1-3)]Gal(b1-4)GlcNAc(b1-2)Man
# Method in brief: as §1
# [19] = biological target: Fuc(a1-2)[GalNAc(a1-3)]Gal(b1-4)GlcNAc(b1-2)Man(a1-3)[Fuc(a1-2)[GalNAc(a1-3)]Gal(b1-4)GlcNAc(b1-2)Man(a1-6)]Man(b1-4)GlcNAc(b1-4)GlcNAc
# Method in brief: as §1
# [20] = biological target: Fuc(a1-2)[GalNAc(a1-3)]Gal(b1-4)GlcNAc(b1-2)Man(a1-3)[Fuc(a1-2)[GalNAc(a1-3)]Gal(b1-4)GlcNAc(b1-2)Man(a1-6)]Man(b1-4)GlcNAc(b1-4)[Fuc(a1-6)]GlcNAc
# Method in brief: as §1
# [21] = biological target: Fuc(a1-2)[GalNAc(a1-3)]Gal(b1-4)GlcNAc(b1-3)Gal(b1-4)GlcNAc
# Method in brief: as §1
# [22] = biological target: Fuc(a1-2)[GalNAc(a1-3)]Gal(b1-4)GlcNAc(b1-3)Gal(b1-4)GlcNAc(b1-3)Gal(b1-4)GlcNAc
# Method in brief: as §1
# [23] = biological target: Fuc(a1-2)[GalNAc(a1-3)]Gal(b1-4)GlcNAc(b1-3)GalNAc
# Method in brief: as §1
# [24] = biological target: Fuc(a1-2)[GalNAc(a1-3)]Gal(b1-4)GlcNAc(b1-3)[Fuc(a1-2)[GalNAc(a1-3)]Gal(b1-4)GlcNAc(b1-6)]GalNAc
# Method in brief: as §1
# [25] = biological target: Fuc(a1-2)[GalNAc(a1-3)]Gal(b1-4)GlcNAc(b1-6)GalNAc
# Method in brief: as §1
# [26] = biological target: Fuc(a1-2)[GalNAc(a1-3)]Gal(b1-4)[Fuc(a1-3)]GlcNAc
# Method in brief: as §1
# [27] = biological target: Fuc(a1-2)[GalNAc(a1-3)]Gal(b1-4)[Fuc(a1-3)]GlcNAc(b1-3)GalNAc
# Method in brief: as §1
# [28] = biological target: Fuc(a1-2)[GalNAc(a1-4)]Gal(b1-4)GlcNAc
# Method in brief: as §1
# [29] = biological target: Fuc(a1-2)[GalNAc(b1-3)]Gal
# Method in brief: as §1
# [30] = biological target: Fuc(a1-3)GlcNAc
# Method in brief: as §1
# [31] = biological target: Fuc(a1-3)[Gal(b1-4)]Glc6S
# Method in brief: as §1
# [32] = biological target: Fuc(a1-3)[Gal(b1-4)]GlcNAc
# Method in brief: as §1
# [33] = biological target: Fuc(a1-3)[Gal(b1-4)]GlcNAc(b1-2)Man
# Method in brief: as §1
# [34] = biological target: Fuc(a1-3)[Gal(b1-4)]GlcNAc(b1-2)Man(a1-3)[Fuc(a1-3)[Gal(b1-4)]GlcNAc(b1-2)Man(a1-6)]Man(b1-4)GlcNAc(b1-4)GlcNAc
# Method in brief: as §1
# [35] = biological target: Fuc(a1-3)[Gal(b1-4)]GlcNAc(b1-2)Man(a1-3)[Fuc(a1-3)[Gal(b1-4)]GlcNAc(b1-2)Man(a1-6)]Man(b1-4)GlcNAc(b1-4)[Fuc(a1-6)]GlcNAc
# Method in brief: as §1
# [36] = biological target: Fuc(a1-3)[Gal(b1-4)]GlcNAc(b1-3)Gal(b1-3)[Fuc(a1-4)]GlcNAc
# Method in brief: as §1
# [37] = biological target: Fuc(a1-3)[Gal(b1-4)]GlcNAc(b1-3)GalNAc
# Method in brief: as §1
binder,measurement,setting,value
B1,glycan array binding signal (z-score),[1],-0.524
same,glycan array binding signal (z-score),[2],0.559
same,glycan array binding signal (z-score),[3],0.153
same,glycan array binding signal (z-score),[4],-0.902
same,glycan array binding signal (z-score),[5],-0.943
same,glycan array binding signal (z-score),[6],0.223
same,glycan array binding signal (z-score),[7],0.018
same,glycan array binding signal (z-score),[8],0.094
same,glycan array binding signal (z-score),[9],0.591
same,glycan array binding signal (z-score),[10],-0.316
same,glycan array binding signal (z-score),[11],0.336
same,glycan array binding signal (z-score),[12],-0.651
same,glycan array binding signal (z-score),[13],-0.052
same,glycan array binding signal (z-score),[14],-0.53
same,glycan array binding signal (z-score),[15],-0.752
same,glycan array binding signal (z-score),[16],-0.241
same,glycan array binding signal (z-score),[17],-0.158
same,glycan array binding signal (z-score),[18],2.08
same,glycan array binding signal (z-score),[19],1.37
same,glycan array binding signal (z-score),[20],0.256
same,glycan array binding signal (z-score),[21],0.445
same,glycan array binding signal (z-score),[22],-0.273
same,glycan array binding signal (z-score),[23],2.09
same,glycan array binding signal (z-score),[24],-1.24
same,glycan array binding signal (z-score),[25],-0.052
same,glycan array binding signal (z-score),[26],-0.288
same,glycan array binding signal (z-score),[27],-0.692
same,glycan array binding signal (z-score),[28],1.18
same,glycan array binding signal (z-score),[29],-1.27
same,glycan array binding signal (z-score),[30],-0.134
same,glycan array binding signal (z-score),[31],1.25
same,glycan array binding signal (z-score),[32],0.565
same,glycan array binding signal (z-score),[33],-0.862
same,glycan array binding signal (z-score),[34],-1.16
same,glycan array binding signal (z-score),[35],-0.996
same,glycan array binding signal (z-score),[36],0.82
same,glycan array binding signal (z-score),[37],0.444

# Some of the entries so far, with bars between the fields:
binder | measurement | setting | value
B1 | glycan array binding signal (z-score) | [18] | 2.08
same | glycan array binding signal (z-score) | [19] | 1.37
same | glycan array binding signal (z-score) | [20] | 0.256
same | glycan array binding signal (z-score) | [21] | 0.445
same | glycan array binding signal (z-score) | [22] | -0.273
same | glycan array binding signal (z-score) | [23] | 2.09
same | glycan array binding signal (z-score) | [24] | -1.24
same | glycan array binding signal (z-score) | [25] | -0.052
same | glycan array binding signal (z-score) | [26] | -0.288
same | glycan array binding signal (z-score) | [27] | -0.692
